Test results: article doi:10.1101/2025.11.14.688441
Results are given in words; binding and its absence hold for the method and conditions named. Binding seen in cells or lysates may run through a third protein. A yes stands for co-enrichment or nearness to the bait. Other partners may have been found. One block for each binder: values may come before it.

The chains behind the UniProt entries cited, without tags or fusion partners.
UniProt Q8BX22: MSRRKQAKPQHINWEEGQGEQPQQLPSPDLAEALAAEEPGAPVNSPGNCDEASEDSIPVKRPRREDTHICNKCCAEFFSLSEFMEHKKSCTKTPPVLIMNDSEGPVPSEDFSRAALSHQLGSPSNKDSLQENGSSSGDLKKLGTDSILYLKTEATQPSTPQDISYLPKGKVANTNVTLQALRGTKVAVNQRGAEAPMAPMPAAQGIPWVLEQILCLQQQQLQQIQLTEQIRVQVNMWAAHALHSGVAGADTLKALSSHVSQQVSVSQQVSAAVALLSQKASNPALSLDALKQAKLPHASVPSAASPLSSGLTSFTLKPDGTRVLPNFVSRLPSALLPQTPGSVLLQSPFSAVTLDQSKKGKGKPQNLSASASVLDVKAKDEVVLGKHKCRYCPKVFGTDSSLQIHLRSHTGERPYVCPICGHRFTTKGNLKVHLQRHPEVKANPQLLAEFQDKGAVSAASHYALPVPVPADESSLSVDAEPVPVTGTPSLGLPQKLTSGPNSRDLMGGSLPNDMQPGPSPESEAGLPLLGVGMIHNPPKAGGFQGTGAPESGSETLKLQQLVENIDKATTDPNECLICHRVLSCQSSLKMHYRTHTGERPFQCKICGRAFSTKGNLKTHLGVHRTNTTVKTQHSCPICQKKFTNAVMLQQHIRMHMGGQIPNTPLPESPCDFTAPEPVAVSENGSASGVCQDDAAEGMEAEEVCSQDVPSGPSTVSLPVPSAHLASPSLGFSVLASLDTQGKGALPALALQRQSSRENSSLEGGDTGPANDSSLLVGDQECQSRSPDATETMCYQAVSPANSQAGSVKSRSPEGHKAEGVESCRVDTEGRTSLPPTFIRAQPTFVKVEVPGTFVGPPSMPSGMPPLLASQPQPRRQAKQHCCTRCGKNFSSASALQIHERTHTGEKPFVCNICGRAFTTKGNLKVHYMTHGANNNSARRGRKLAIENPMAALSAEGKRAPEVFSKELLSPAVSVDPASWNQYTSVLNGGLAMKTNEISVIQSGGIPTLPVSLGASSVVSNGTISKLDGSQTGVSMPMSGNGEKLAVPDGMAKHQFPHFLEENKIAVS

Target: SALL4 (wild-type, endogenous in mouse embryonic stem cells) (mouse (endogenous in E14Ju09 ESCs)) (UniProt Q8BX22)
Experiment: affinity purification with mass spectrometry

binding: binds
B2: SALL3 (protein, UniProt Q62255 1-1320)
chain: MSRRKQAKPQHLKSDEELPPQDGASEHGVPGDGAEDADSGSESRSGSEETSVCEKCCAEFFKWADFLQHKKTCTKNPLVLIVHDDEPAPPSEDFPEPSPASSPSDRTESEVAEEVAPTEGSEVKAATKEAEPMDVEVSTDKGPPGPSVPPPPPALPPQPEPAAFSMPSTNVTLETLLSTKVAVAQFSQGARAGGTTGAGGSVGAVAIPMILEQLVALQQQQIHQLQLIEQIRSQVALMSRQPGPPLKPSASAPGTASVQLQGLTPHAALQLSAGPATASAGSGSTLPAAFDGPQHLSQPASGTSTPCSTSAAPPDSGAHPACSTGPAPGAVAAASSTVGNAVQPQNASTPPALGPGPLLSSASNLPNPLLPQTSSSSVIFPNPLVSIAATANALDPLSALMKHRKGKPPNVSVFEPKASAEDPFFKHKCRFCAKVFGSDSALQIHLRSHTGERPFKCNICGNRFSTKGNLKVHFQRHKEKYPHIQMNPYPVPEYLDNVPTCSGIPYGMSLPPEKPVTTWLDSKPVLPTVPTSVGLQLPPTVPGTHNYTDSPSITPVSRSPQRPSPASSECTSLSPGLNNTESGITVRPESPQPLLGGPSLTKAEPVSLPCTSTRTGDAPVVGGQVSGLPTSAATAVTDSACTSLGSPGLPAVSDQFKAQFPFGGLLDSMQTSETSKLQQLVENIDKKMTDPNQCVICHRVLSCQSALKMHYRTHTGERPFKCKICGRAFTTKGNLKTHFGVHRAKPPLRVQHSCPICQKKFTNAVVLQQHIRMHMGGQIPNTPLPEGLQEAMDADLPFDEKNAETLSSFDDDIDENSMEEDSELKDTASDSSKPLLSYSGSCPPSPPSVISSIAALENQMKMIDSVMNCQQLANLKSVENGSGESDRLSNDSSSAVGDLESRSAGSPALSESSSSQALSPAHSNGESFRSKSPGLGHQEDPQEIPLKTERLDSPPPGPGNGGALDLTAGHPGRPLIKEEAPFSLLFLSRERGKCASTVCGVCGKPFACKSALEIHYRSHTKERRFVCTVCRRGCSTMGNLKQHLLTHKLKELPSQVFDPNFTLGPSHSTPSLASSPAPTMIKMEVNGHSKAIALGEGPALPAGVQVPTGPQTVMSPGLAPMLAPPPRRTPKQHNCQSCGKTFSSASALQIHERTHTGEKPFGCTICGRAFTTKGNLKVHMGTHMWNNAPARRGRRLSVENPMALLGGDALKFSEMFQKDLAARAMNVDPSFWNQYAAAITNGLAMKNNEISVIQNGGIPQLPVSLGGGAIPPLGAMASGVDKARTGSSPPIVSLDKASSETGASRPFARFIEDNKEIGIN

binding: binds
B5: SALL2 (protein, UniProt Q9QX96 1-1004)
chain: MSRRKQRRPQQLISDCEGPSASENGDASEEDHPQVCAKCCAQFSDPTEFLAHQNSCCTDPPVMVIIGGQENPSNSSASSAPRPEGHSRSQVMDTEHSNPPDSGSSGAPDPTWGPERRGEESSGQFLVAATGTAAGGGGGLILASPKLGATPLPPESTPAPPPPPPPPPPPGVGSGHLNIPLILEELRVLQQRQIHQMQMTEQICRQVLLLGSLGQTVGAPASPSELPGTGAASSTKPLLPLFSPIKPAQTGKTLASSSSSSSSSGAEPPKQAFFHLYHPLGSQHPFSVGGVGRSHKPTPAPSPALPGSTDQLIASPHLAFPGTTGLLAAQCLGAARGLEAAASPGLLKPKNGSGELGYGEVISSLEKPGGRHKCRFCAKVFGSDSALQIHLRSHTGERPYKCNVCGNRFTTRGNLKVHFHRHREKYPHVQMNPHPVPEHLDYVITSSGLPYGMSVPPEKAEEEAGTPGGGVERKPLVASTTALSATESLTLLSTGTSTAVAPGLPTFNKFVLMKAVEPKSKADENTPPGSEGSAIAGVADSGSATRMQLSKLVTSLPSWALLTNHLKSTGSFPFPYVLEPLGASPSETSKLQQLVEKIDRQGAVAVASTASGAPTTSAPAPSSSASGPNQCVICLRVLSCPRALRLHYGQHGGERPFKCKVCGRAFSTRGNLRAHFVGHKTSPAARAQNSCPICQKKFTNAVTLQQHVRMHLGGQIPNGGSALSEGGGAAQENSSEQSTASGPGSFPQPQSQQPSPEEEMSEEEEEDEEEEEDVTDEDSLAGRGSESGGEKAISVRGDSEEVSGAEEEVATSVAAPTTVKEMDSNEKAPQHTLPPPPPPPDNLDHPQPMEQGTSDVSGAMEEEAKLEGTSSPMAALTQEGEGTSTPLVEELNLPEAMKKDPGESSGRKACEVCGQSFPTQTALEEHQKTHPKDGPLFTCVFCRQGFLDRATLKKHMLLAHHQVPPFAPHGPQNIATLSLVPGCSSSIPSPGLSPFPRKDDPTMP

Second part, the binder before the results:

B1: CDK2AP1 (protein, UniProt O35207 1-114)
chain: MSYKPNLTAHMPAAALNAGSVHSPSTSMATSSQYRQLLSDYGPPSLGYTQGTGNSQVPQSKYAELLAIIEELGKEIRPTYAGSKSAMERLKRGIIHARSLVRECLAETERNARS
binding: binds

B3: BEND3 (protein, UniProt Q6PAL0 1-825)
chain: MNSTEISEDVEEVLKNNPVKAEGSDATLDCSRNSRASEKHLLESVLTALHDSSKRKQLDSDGQPDSVPSVKRRRLIPEALLAGMRTRENSSPCQGNGEPASRGRSGSCAWPAEEEPSTEATVPSYKKPLYGISHKIMEKKNPPSGDLLSPYELFEKANSSSGPSPLRLLSESQKRECGVGVATDGDLNIYFLIQKMFYMLNGLTTNMSQLHSKMDLLSLEVSRVKKQVSPSELVAKFQPPPEYQLTASELKQIAEQSLSCGDLACRLLLQLFPELFSDVDFSRGCSACGFAAKRKLESLHLQLIRNYVEVYYPNVKDTAVWQAECLPQLNDFFSRFWAQREMEDSQPGGQVTNFFEADQVDAGHFLDNKDQEEALSLDRSSTIASDHVVDTQDLTEFLDEASSPGEFAVFLLHRLFPELFDHRKLGEQYSCYGDGGKQELDPQRLQIIRNYTEIYFPDMQEEEAWLQQCAQRINDELEGLGLEGGSEGEAPRDDCYDSSSLPDDISVVKVEDNFEGERPGRRSKKIWLVPIDFDKLEIPQPDFEMPGSDCLLSKEQLRSIYESSLSIGNFASRLLVHLFPELFTHENLRKQYNCSGSLGKKQLDPARIRLIRHYVQLLYPRAKNDRVWTLEFVGKLDERCRRRDTEQRRSYQQQRKVHVPGPECRDLASYAINPERFREEFEGPPLPPERSSKDFCKIPLDELVVPSPDFPVPSPYLLSDKEVREIVQQSLSVGNFAARLLVRLFPELFTTENLRLQYNHSGACNKKQLDPTRLRLIRHYVEAVYPVEKMEEVWHYECIPSIDERCRRPNRKKCDILKKAKKVEK
binding: binds

B4: SALL1 (protein, UniProt Q9ER74 1-1322)
chain: MSRRKQAKPQHFQSDPEVASLPRRDGDTEKGQPSRPTKSKDAHVCGRCCAEFFELSDLLLHKKSCTKNQLVLIVNESPASPAKTFPPGPSLNDPDDQMKDAANKADQEDCSDLSEPKGLDREESMEVEVPVATTTTTTTGGSGGSGGSTLSGVTNITTPSCHSGCSSGTSAITTSLPQLGDLTTLGNFSVINSNVIIENLQSTKVAVAQFSQEARCGGASGGKLLISTLMEQLLALQQQQIHQLQLIEQIRHQILLLASQSADLPAAPSIPSQGTLRTSANPLTTLSSHLSQQLAVAAGLAQSLASQSANISGVKQLPHVQLPQSSSGTSIVPPSGGTSPNMSIVTAAVPTPSSEKVASNAGASHVSSPAVSASSSPAFAISSLLSPESNPLLPQPTPANAVFPTPLPNIATTAEDLNSLSALAQQRKSKPPNVTAFEAKSTSDEAFFKHKCRFCAKVFGSDSALQIHLRSHTGERPFKCNICGNRFSTKGNLKVHFQRHKEKYPHIQMNPYPVPEHLDNVPTSTGIPYGMSIPSEKPVTSWLDTKPVLPTLTTSVGLPLPPTLPSLTPFIKTEEPAPIPISHSAASPQGSVKSDSGAPDLATRNPSGVPEEVEGSAVPPFGGKGEESNMASSAVPTAGNSTLNSPVADGGPGGTTFTNPLLPLMSEQFKAKFPFGGLLDSAQASETSKLQQLVENIDKKATDPNECIICHRVLSCQSALKMHYRTHTGERPFKCKICGRAFTTKGNLKTHYSVHRAMPPLRVQHSCPICQKKFTNAVVLQQHIRMHMGGQIPNTPVPDNYPESMESDTGSFDEKNFDDLDNFSDENMEECPEGSIPDTPKSADASQDSLSSSPLPLEMSSIAALENQMKMINAGLAEQLQASLKSVENGSMEGDVLTNDSSSVGGDMESQSAGSPAISESTSSMQALSPSNSTQEFHKSPGMEEKPQRVGPGEFANGLSPTPVNGGALDLTSSHAEKIIKEDSLGILFPFRDRGKFKNTACDICGKTFACQSALDIHYRSHTKERPFICTVCNRGFSTKGNLKQHMLTHQMRDLPSQLFEPSSNLGPNQNSAVIPANSLSSLIKTEVNGFVHVSPQDSKDAPTSHVPQGPLSSSATSPVLLPALPRRTPKQHYCNTCGKTFSSSSALQIHERTHTGEKPFACTICGRAFTTKGNLKVHMGTHMWNSTPARRGRRLSVDGPMTFLGGNPVKFPEMFQKDLAARSGSGDPSSFWNQYTAALSNGLAMKANEISVIQNGGIPPIPGSLGSGSSPISGLTGNVEKLGNSEPSAPLAGLEKMASSENGTNFRFTRFVEDSKEIVTS
binding: binds
